Results from EPA's aquatic toxicity sets.

Test system: Pimephales promelas
Assay: 96 h LC50 (-log10 mol/L); higher = more toxic

Row | SMILES | 96 h LC50 (-log10 mol/L)
1 | CC(C)(C)c1ccc(O)cc1 | 4.47
2 | CCCCCCCC1CCC(=O)O1 (configuration not stated) | 2.09
